Experimental findings from patent US12065471B2, “B*44 restricted peptides for use in immunotherapy against cancers and related methods” (Immatics Biotechnologies GmbH, priority 2018, dated 2024) are described below.

One series concerns HLA molecules of primary tumor and normal tissue samples. In words: Identification and quantitation of tumor associated peptides presented on the cell surface (HLA immunoprecipitation, label-free LC-MS). Also noted: species or system human. The note with it: HLA-B*44 positive normal (N=124) vs tumor samples (N=159), FIGS. 1A-1M.
For the substance “NEVDGEYRY (listed as Homo sapiens) [SEQ ID NO: 452]”, the “over-presentation of peptide in cancer tissues (median MS signal intensities, detection frequency)” value (“over-presentation of peptide” below) is reported as “over-presentation”. Take “TELEVKIRDW (listed as Homo sapiens) [SEQ ID NO: 196]”: the “over-presentation of peptide” value is recorded as “over-presentation”. On to “DEIFTNDRRW (listed as Homo sapiens) [SEQ ID NO: 3]”, for which the “over-presentation of peptide” value is “over-presentation”. For “NESDRLVYF (listed as Homo sapiens) [SEQ ID NO: 16]”, the “over-presentation of peptide” value is “over-presentation”. Regarding “AEKNRRDAETW (listed as Homo sapiens) [SEQ ID NO: 305]”, the “over-presentation of peptide” value is given as “over-presentation”.

The series is the same for the next values; noted with them: cancer entities on which the peptide was found presented (HLA immunoprecipitation, LC-MS); abbreviations in table footnotes.
Turning to “283 (VEEEISRHY; listed as Homo sapiens) [compound 283]”, the “Peptide Presentation on cancer entities” value is “BRCA, CCC, CLL, CRC, GBC, HCC, HNSCC, MEL, NSCLCadeno, NSCLCsquam, OC, OSCAR, PACA, PRCA, RCC, UBC, UEC”. In the case of “19 (MEHSDENIQFW; listed as Homo sapiens) [compound 19]”, the “Peptide Presentation on cancer entities” value is on record as “NHL”.

Take “59 (AEIEADRSYQ; listed as Homo sapiens) [compound 59]”: the “Peptide Presentation on cancer entities” value was “HNSCC”. Consider “450 (REIENGNSF; listed as Homo sapiens) [compound 450]”, for which the “Peptide Presentation on cancer entities” value is listed as “AML, CRC, GBC, HNSCC, NSCLCadeno, NSCLCsquam, PACA”. Take “164 (DEDGKIVGY; listed as Homo sapiens) [compound 164]”: the “Peptide Presentation on cancer entities” value was “HCC”.

Regarding “423 (KEAINLLKNY; listed as Homo sapiens) [compound 423]”, the “Peptide Presentation on cancer entities” value was “BRCA, CLL, HNSCC, NHL”. For “34 (AEPPILYSEY; listed as Homo sapiens) [compound 34]”, the “Peptide Presentation on cancer entities” value is recorded as “UEC”. Consider “370 (EEVLLANALW; listed as Homo sapiens) [compound 370]”, for which the “Peptide Presentation on cancer entities” value is on record as “CLL, CRC, HCC, NHL, UBC”. “316 (RLWPEPENW; listed as Homo sapiens) [compound 316]”: the “Peptide Presentation on cancer entities” value is listed as “GBM”. Take “440 (QEVAQVASA; listed as Homo sapiens) [compound 440]”: the “Peptide Presentation on cancer entities” value is on record as “HNSCC”.

Regarding “16 (NESDRLVYF; listed as Homo sapiens) [compound 16]”, the “Peptide Presentation on cancer entities” value is on record as “GBC, MEL, NHL”.

Regarding “317 (TEFQQIINL; listed as Homo sapiens) [compound 317]”, the “Peptide Presentation on cancer entities” value was “CLL”. For the substance “69 (DENIQKFIW; listed as Homo sapiens) [compound 69]”, the “Peptide Presentation on cancer entities” value is reported as “HNSCC, UBC”. On the same count and under the same terms, the same measure for “109 (AFSPAAGNTW; listed as Homo sapiens) [compound 109]”: “CCC”; for “181 (HEVAQDDHL; listed as Homo sapiens) [compound 181]”: “UBC”. Turning to “321 (AENPLNIFYI; listed as Homo sapiens) [compound 321]”, the “Peptide Presentation on cancer entities” value is “AML, NHL, NSCLCsquam”. With “55 (TEFHMQFSY; listed as Homo sapiens) [compound 55]”, the “Peptide Presentation on cancer entities” value was “CLL”. Same read-out and setting: as for “319 (YEWEPFAEV; listed as Homo sapiens) [compound 319]”, the entry is “NSCLCadeno”; as for “93 (SEAGLTANQY; listed as Homo sapiens) [compound 93]”, “NHL”; as for “147 (RMLSFQQMTW; listed as Homo sapiens) [compound 147]”, “NHL”. As for “277 (VEFPATRSL; listed as Homo sapiens) [compound 277]”, the “Peptide Presentation on cancer entities” value is listed as “AML”. The same measure, in the same setting: as for “174 (DENDAGNLITF; listed as Homo sapiens) [compound 174]”, the entry is “OSCAR”; as for “162 (EAYDIELNKW; listed as Homo sapiens) [compound 162]”, “OSCAR, UBC”.

Regarding “363 (EECDKAFHF; listed as Homo sapiens) [compound 363]”, the “Peptide Presentation on cancer entities” value was “BRCA, CCC, CLL, CRC, GC, HNSCC, NHL, NSCLCadeno, NSCLCsquam, OC, OSCAR, PACA, PRCA, UBC”.

Take “217 (EVEVGDRTDW; listed as Homo sapiens) [compound 217]”: the “Peptide Presentation on cancer entities” value is reported as “UEC”.

Regarding “342 (SENKKWVEF; listed as Homo sapiens) [compound 342]”, the “Peptide Presentation on cancer entities” value was “CLL, CRC, NHL, NSCLCsquam”. In the case of “352 (QEDELVKIRKY; listed as Homo sapiens) [compound 352]”, the “Peptide Presentation on cancer entities” value was “BRCA, CCC, CRC, HCC, MEL, NHL, NSCLCadeno, NSCLCsquam, OC, OSCAR, PACA, PRCA, RCC, SCLC, UEC”. “380 (EECGKAFRVF; listed as Homo sapiens) [compound 380]”: the “Peptide Presentation on cancer entities” value is listed as “CLL, CRC, NHL”.

Take “138 (KEAPNIVTL; listed as Homo sapiens) [compound 138]”: the “Peptide Presentation on cancer entities” value is recorded as “BRCA”. Regarding “374 (NEAEWQEIL; listed as Homo sapiens) [compound 374]”, the “Peptide Presentation on cancer entities” value is given as “CLL”.

Regarding “50 (SEYVHSSFSGF; listed as Homo sapiens) [compound 50]”, the “Peptide Presentation on cancer entities” value is listed as “NSCLCadeno”.

In the case of “57 (SEATHIITI; listed as Homo sapiens) [compound 57]”, the “Peptide Presentation on cancer entities” value is “AML, PACA”. Consider “312 (KEWEREKAVSL; listed as Homo sapiens) [compound 312]”, for which the “Peptide Presentation on cancer entities” value was “UBC”.

Consider “366 (EECGKAFKKF; listed as Homo sapiens) [compound 366]”, for which the “Peptide Presentation on cancer entities” value is recorded as “CLL”.

For the substance “211 (LEMLDAHRL; listed as Homo sapiens) [compound 211]”, the “Peptide Presentation on cancer entities” value was “BRCA”. Turning to “52 (EDNPSGHTY; listed as Homo sapiens) [compound 52]”, the “Peptide Presentation on cancer entities” value is on record as “GBC, NHL”. Take “166 (EEQDFINNRY; listed as Homo sapiens) [compound 166]”: the “Peptide Presentation on cancer entities” value is on record as “GBM”. In the case of “313 (EEINQGGRKY; listed as Homo sapiens) [compound 313]”, the “Peptide Presentation on cancer entities” value is on record as “CLL, CRC, NHL, NSCLCadeno, NSCLCother, NSCLCsquam”. In the case of “80 (TEQSLYYRQW; listed as Homo sapiens) [compound 80]”, the “Peptide Presentation on cancer entities” value is “MEL”. As to “232 (YEIRAEAL; listed as Homo sapiens) [compound 232]”, the “Peptide Presentation on cancer entities” value was “UBC”. Still for that read-out and setting: the same measure for “9 (MEVDPIGHLYIF; listed as Homo sapiens) [compound 9]”: “GBC, HCC, NHL, NSCLCadeno, NSCLCsquam, OC, OSCAR”; for “245 (MEFQGPMPAGM; listed as Homo sapiens) [compound 245]”: “NSCLCsquam”; for “360 (DEMENLLTY; listed as Homo sapiens) [compound 360]”: “BRCA, CLL, HCC, NHL, NSCLCsquam, OSCAR, PRCA, UEC”. “305 (AEKNRRDAETW; listed as Homo sapiens) [compound 305]”: the “Peptide Presentation on cancer entities” value was “HNSCC, NSCLCsquam, OSCAR, UBC”. With “396 (MELLFLDTF; listed as Homo sapiens) [compound 396]”, the “Peptide Presentation on cancer entities” value is listed as “CLL, NHL”. With “385 (LEHPFLVNLW; listed as Homo sapiens) [compound 385]”, the “Peptide Presentation on cancer entities” value is “CLL, RCC”. Still for that read-out and setting: as for “73 (GEGTLRLSW; listed as Homo sapiens) [compound 73]”, the entry is “MEL”; as for “431 (QELLDFTNW; listed as Homo sapiens) [compound 431]”, “SCLC”; as for “402 (IETSSEYFNF; listed as Homo sapiens) [compound 402]”, “BRCA, CRC, HNSCC, NHL, NSCLCadeno, NSCLCsquam, OSCAR, PACA, UBC, UEC”. On to “454 (SESSSAFQF; listed as Homo sapiens) [compound 454]”, for which the “Peptide Presentation on cancer entities” value is reported as “MEL, NHL”. In the case of “77 (QETLAESTW; listed as Homo sapiens) [compound 77]”, the “Peptide Presentation on cancer entities” value was “NHL”. On to “92 (KEPSQSCIAQY; listed as Homo sapiens) [compound 92]”, for which the “Peptide Presentation on cancer entities” value is reported as “OSCAR”. In the case of “434 (AEQQQQQMY; listed as Homo sapiens) [compound 434]”, the “Peptide Presentation on cancer entities” value was “NHL”. “422 (EEAQWVRKYF; listed as Homo sapiens) [compound 422]”: the “Peptide Presentation on cancer entities” value was “CLL, CRC, NHL, UBC”. In the case of “153 (IEIILLSGSL; listed as Homo sapiens) [compound 153]”, the “Peptide Presentation on cancer entities” value was “PACA”. Same read-out and setting: as for “40 (REVDPDDSYVF; listed as Homo sapiens) [compound 40]”, the entry is “MEL”. “99 (SECVKSLSF; listed as Homo sapiens) [compound 99]”: the “Peptide Presentation on cancer entities” value is recorded as “BRCA”.

On to “76 (RLNEHPSNNW; listed as Homo sapiens) [compound 76]”, for which the “Peptide Presentation on cancer entities” value was “PACA”.

Regarding “149 (AETEPERHLG; listed as Homo sapiens) [compound 149]”, the “Peptide Presentation on cancer entities” value is reported as “CLL”. Still for that read-out and setting: the same measure for “155 (TEDARHPESW; listed as Homo sapiens) [compound 155]”: “CLL, NHL”; for “233 (QEDKATQTL; listed as Homo sapiens) [compound 233]”: “CLL”. With “230 (AEALVDGKW; listed as Homo sapiens) [compound 230]”, the “Peptide Presentation on cancer entities” value is reported as “UBC”.

Staying with this series, now noted: tumor tissue samples, LC-MS.
For the substance “NESDRLVYF (listed as Homo sapiens) [SEQ ID NO: 16]”, the “presentation on cancer entities” value is “gallbladder cancer (GBC), melanoma (MEL), and non-Hodgkin lymphoma (NHL)”.
